Our source for the binding values is publication PMC2779455, “The E3 Ubiquitin-Ligase Bmi1/Ring1A Controls the Proteasomal Degradation of Top2α Cleavage Complex – A Potentially New Drug Target” (PLoS ONE, 2009).

Chains of the proteins cited; added tags and fusions are not shown. Lines headed by an entry give the natural chain unless they say otherwise; changes in a name come on top.
UniProt P35226: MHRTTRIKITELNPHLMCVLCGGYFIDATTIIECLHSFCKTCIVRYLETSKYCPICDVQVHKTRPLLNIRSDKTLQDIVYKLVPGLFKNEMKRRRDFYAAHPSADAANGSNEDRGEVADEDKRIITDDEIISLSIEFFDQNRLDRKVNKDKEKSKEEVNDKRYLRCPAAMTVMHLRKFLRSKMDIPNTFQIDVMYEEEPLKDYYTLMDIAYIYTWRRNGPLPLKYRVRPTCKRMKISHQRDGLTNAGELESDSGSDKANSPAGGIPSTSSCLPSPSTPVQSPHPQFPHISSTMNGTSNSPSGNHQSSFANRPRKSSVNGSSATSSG
UniProt P11388: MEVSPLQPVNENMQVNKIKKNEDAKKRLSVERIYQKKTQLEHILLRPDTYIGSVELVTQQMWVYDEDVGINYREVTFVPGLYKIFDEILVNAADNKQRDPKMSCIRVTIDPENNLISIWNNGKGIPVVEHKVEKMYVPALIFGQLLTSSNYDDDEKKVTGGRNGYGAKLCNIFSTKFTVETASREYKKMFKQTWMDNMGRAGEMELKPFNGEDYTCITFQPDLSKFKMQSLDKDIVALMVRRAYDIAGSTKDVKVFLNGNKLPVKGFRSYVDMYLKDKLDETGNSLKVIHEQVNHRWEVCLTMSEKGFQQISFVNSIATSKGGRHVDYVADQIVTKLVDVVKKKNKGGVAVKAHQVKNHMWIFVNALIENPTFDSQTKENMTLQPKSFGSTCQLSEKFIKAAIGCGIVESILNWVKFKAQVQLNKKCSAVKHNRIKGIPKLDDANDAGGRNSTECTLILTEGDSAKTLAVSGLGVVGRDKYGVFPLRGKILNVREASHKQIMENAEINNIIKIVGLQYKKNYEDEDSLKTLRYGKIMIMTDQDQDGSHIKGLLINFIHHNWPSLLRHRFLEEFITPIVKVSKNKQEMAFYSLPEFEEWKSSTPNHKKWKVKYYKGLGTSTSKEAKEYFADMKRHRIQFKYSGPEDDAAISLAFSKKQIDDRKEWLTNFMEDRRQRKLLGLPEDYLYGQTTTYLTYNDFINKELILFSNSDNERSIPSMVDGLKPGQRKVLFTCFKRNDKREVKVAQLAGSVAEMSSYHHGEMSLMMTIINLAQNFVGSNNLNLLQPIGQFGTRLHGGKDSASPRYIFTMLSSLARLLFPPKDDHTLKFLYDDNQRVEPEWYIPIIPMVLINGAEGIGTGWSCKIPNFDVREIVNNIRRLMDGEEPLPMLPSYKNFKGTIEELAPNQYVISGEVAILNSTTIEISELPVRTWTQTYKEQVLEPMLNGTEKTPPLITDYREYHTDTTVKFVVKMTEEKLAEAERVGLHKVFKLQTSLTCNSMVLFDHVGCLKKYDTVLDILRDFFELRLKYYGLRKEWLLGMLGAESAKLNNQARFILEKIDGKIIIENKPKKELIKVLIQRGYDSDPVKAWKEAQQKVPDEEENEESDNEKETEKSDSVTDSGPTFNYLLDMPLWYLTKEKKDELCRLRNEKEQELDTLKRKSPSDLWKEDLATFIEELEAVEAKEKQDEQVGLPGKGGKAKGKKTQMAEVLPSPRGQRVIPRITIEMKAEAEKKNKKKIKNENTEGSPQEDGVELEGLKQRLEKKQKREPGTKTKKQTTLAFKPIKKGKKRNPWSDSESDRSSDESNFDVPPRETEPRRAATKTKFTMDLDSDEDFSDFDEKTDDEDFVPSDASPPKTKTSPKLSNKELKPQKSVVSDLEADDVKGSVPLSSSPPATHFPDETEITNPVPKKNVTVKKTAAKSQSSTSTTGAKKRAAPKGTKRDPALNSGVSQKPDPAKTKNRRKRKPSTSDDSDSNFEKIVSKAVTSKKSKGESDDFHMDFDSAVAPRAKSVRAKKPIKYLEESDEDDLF
UniProt Q06587: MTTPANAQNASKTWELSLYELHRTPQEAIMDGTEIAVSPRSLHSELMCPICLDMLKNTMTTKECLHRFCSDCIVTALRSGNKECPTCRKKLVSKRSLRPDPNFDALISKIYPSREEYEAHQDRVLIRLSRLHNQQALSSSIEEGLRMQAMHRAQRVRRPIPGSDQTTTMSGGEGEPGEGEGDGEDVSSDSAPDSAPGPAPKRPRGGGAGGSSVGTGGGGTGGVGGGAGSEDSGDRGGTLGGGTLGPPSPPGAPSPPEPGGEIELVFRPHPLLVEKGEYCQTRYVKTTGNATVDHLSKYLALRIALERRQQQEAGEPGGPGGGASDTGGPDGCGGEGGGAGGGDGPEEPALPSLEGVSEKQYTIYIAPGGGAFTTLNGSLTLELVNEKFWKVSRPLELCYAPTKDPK

No constants are given. Whether binding was seen depends on the method and setting. Some results given as binding are weak or reduced against the parent protein; the word gives no strength.

The target of experiment [1] is recombinant GST-Bmi1 fusion protein (N-terminal V5 tag, C-terminal six-histidine tag) (human) (UniProt P35226). Nature of the experiment: co-purification of a complex; GST-Bmi1/Ring1A complex (wild type or RING domain mutants) produced in bacteria and purified as a complex.
A further experiment concerns the target recombinant FLAG-Top2α (UniProt P11388). Nature of the experiment: co-IP; cell-free binding assay: recombinant GST-myc-Bmi1 and GST-HA-Ring1A, separately or combined, incubated with or without recombinant FLAG-Top2α; Top2α immunoprecipitated with anti-Flag conjugated beads, bound proteins detected by Western-blot; both purified.
Experiment [2] deals with Bmi1 L20A RING domain mutant (human) (UniProt P35226). Briefly: co-purification of a complex; GST-Bmi1/Ring1A complex (wild type or RING domain mutants) produced in bacteria and purified as a complex.

With “Ring1A I50A RING domain mutant (from UniProt Q06587 1-406)”, in experiment [1], the binding entry was “binds”. On to “recombinant GST-Bmi1 fusion protein (N-terminal V5 tag, C-terminal six-histidine tag) (from UniProt P35226 1-326)”, for which, in the experiment with recombinant FLAG-Top2α, the binding entry was “binds”. As to “recombinant GST-Ring1A fusion protein (N-terminal HA tag, C-terminal six-histidine tag) (from UniProt Q06587 1-406)”, the binding entry (in experiment [2]; in experiment [1]; with recombinant FLAG-Top2α) was “binds” throughout.
